Measurements as given in patent US20180057596A1.
Results are given in words; binding and its absence hold for the method and conditions named. Some binding calls cover weakened binding; strength is not graded here.

Target: cynomolgus IL4Rα/Fc HIS6 (HEK expressed) (cynomolgus monkey)
Test: DELFIA epitope competition, receptor as competitor of biotinylated human IL-4Rα HIS FLAG

binding: binds
B1: Antibody 37GL IgG (antibody, V domains shown)
VH: QVQLVQSGAEVKKPGASVKVSCKASGYAFTSYYMHWVRQAPGQGLEWMGIINPRGGSTSYAQKFQGRVTMTRDTSTSTVYMELSSLRSEDTAVYYCARGKYWMYDWGKGTLVTVSS
VL: QSVLTQPPSVSAAPGQKVTISCSGGGSSIGNSYVSWYQQLPGTAPKLLIYDNNKRPSGIPDRFSGSKSGTSATLGITGLQTGDEADYYCGTWDTSPVWEWPFGTGTKLTVL
